According to patent publication US7501430B2 (ArQule, Inc., priority 2006, dated 2009):
The structures given here were assigned with low confidence; some may be wrong.

The chains behind the UniProt entries cited, without tags or fusion partners.
UniProt P15056, whole entry V600E: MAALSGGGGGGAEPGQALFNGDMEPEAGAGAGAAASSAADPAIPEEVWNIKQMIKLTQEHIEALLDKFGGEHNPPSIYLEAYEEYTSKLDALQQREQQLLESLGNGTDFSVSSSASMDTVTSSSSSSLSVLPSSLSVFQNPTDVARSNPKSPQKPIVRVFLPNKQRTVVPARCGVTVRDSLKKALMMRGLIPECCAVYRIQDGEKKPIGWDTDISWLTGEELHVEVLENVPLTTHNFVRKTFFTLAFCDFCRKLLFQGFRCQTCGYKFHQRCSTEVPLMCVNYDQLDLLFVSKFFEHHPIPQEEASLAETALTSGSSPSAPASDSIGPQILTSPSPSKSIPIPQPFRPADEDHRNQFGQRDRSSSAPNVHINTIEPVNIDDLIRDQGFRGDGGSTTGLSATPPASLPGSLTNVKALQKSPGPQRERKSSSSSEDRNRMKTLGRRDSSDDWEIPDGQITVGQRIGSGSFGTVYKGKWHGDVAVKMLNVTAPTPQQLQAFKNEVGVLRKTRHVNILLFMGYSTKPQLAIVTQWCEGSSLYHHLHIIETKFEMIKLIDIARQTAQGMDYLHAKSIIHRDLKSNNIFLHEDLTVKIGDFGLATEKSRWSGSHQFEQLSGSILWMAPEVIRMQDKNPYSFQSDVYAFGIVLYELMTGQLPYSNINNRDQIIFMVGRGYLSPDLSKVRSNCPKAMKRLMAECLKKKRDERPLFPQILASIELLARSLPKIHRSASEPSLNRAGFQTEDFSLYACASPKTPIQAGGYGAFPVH

What follows are molecules tested against mutant B-RAF (Homo sapiens, UniProt P15056, V600E) (assay: RAF biochemical assay (MEK-1 phosphorylation, anti-phospho MEK1/2 detection)). Details: read-out: Mutant B-RAF IC50.

How did the IC50 turn out when N#Cc1ccc(S(=O)(=O)N2CCC[C@@H](Nc3nccc(-c4c(-c5cccc(O)c5)nc5occn45)n3)C2)cc1 was run?
Its IC50 is 10 nM.

How did the IC50 turn out when O=S(=O)(c1ccc(F)cc1)N1CCC(Nc2nccc(-c3c(-c4cccc(O)c4)nc4occn34)n2)CC1 was run?
Its IC50 is 46 nM.

How did the IC50 turn out when O=S(=O)(c1ccc(Cl)cc1)N1CCC[C@@H](Nc2nccc(-c3c(-c4cccc(O)c4)nc4occn34)n2)C1 was run?
Its IC50 is 38 nM.

With CCCCNC(=O)N1CCC(Nc2nccc(-c3c(-c4cccc(O)c4)nc4sccn34)n2)CC1 as the molecule, how does the IC50 read?
Its IC50 is 3000 nM.
